PubChem BioAssay (EPA / NIEHS)
Where “and” joins values, the source holds several entries; their conditions need not be identical. Identical values can stand only once. Inconclusive results, whose numbers are uncertain, are shown with a selection of clear calls. Potencies beside an inconclusive call are fits to weak or partial responses and may not hold up. Calls of active or inactive are those of the source. How the source made its calls: active means hit-call score of the fitted dose curve at least 0.9, where 1 is the maximum; inconclusive means response in the unintended direction; inactive means score below 0.9.

Sequences of proteins named here, by UniProt entry; tags and fusion partners are left off.
UniProt P10276, whole entry, looked up: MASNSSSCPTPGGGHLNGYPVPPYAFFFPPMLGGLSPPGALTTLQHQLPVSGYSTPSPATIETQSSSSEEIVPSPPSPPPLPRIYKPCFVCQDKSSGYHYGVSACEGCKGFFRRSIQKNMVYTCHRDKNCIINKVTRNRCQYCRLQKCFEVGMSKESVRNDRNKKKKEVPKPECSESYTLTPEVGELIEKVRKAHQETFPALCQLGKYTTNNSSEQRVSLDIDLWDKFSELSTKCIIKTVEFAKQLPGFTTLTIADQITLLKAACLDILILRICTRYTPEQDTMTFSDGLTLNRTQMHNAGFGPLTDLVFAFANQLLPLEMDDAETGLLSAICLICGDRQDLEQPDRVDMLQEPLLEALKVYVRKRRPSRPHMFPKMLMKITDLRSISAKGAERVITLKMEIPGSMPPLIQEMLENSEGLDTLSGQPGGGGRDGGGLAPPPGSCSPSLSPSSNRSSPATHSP

These compounds were tested against Retinoic acid receptor alpha (Homo sapiens) (UniProt P10276) (assay: ATG_RARa_TRANS: Attagene TRANS-FACTORIAL HepG2 Assay for human Retinoic Acid Receptor alpha (RARa) (AID 2283005);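 on AC50: potency for increased reporter signal meaning RARa activation over DMSO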).
Experimental: ATG_TRANS is a cell-based, multiplexed-readout assay that uses HepG2, a human liver cell line, with measurements taken at 24 hours after chemical dosing in a 24-well plate.ATG_RARa_TRANS is one of 30 assay component(s) measured or calculated from the ATG_TRANS assay. It is designed to make measurements of mRNA induction, a form of inducible reporter, as detected with fluorescence intensity signals by Reverse transcription polymerase chain reaction (RT-PCR) and Capillary electrophoresis technology.Data from the assay component ATG_RARa_TRANS was analyzed into 1 assay endpoint. This assay endpoint, ATG_RARa_TRANS, was analyzed in the positive analysis fitting direction relative to DMSO as the negative control and baseline of activity. Using a type of inducible reporter, measures of mRNA for gain-of-signal activity can be used to understand the reporter gene at the transcription factor-level as they relate to the gene RARA. Furthermore, this assay endpoint can be referred to as a primary readout, because this assay has produced multiple assay endpoints where this one serves a reporter gene function. To generalize the intended target to other relatable targets, this assay endpoint is annotated to the nuclear receptor intended target family, where the subfamily is non-steroidal.
Human liver HepG2 cells are transiently transfected with multiple reporter transcription units (MRTUs) in 6-well plates using FuGene 6 reagent (Roche; 3 ml FuGene/1 mg DNA). The MRTU constructs are regulated by a cis-regulating element (promoter). […] A major difference between the CIS and TRANS system is that in CIS activities of endogenous TFs are measured, whereas the TRANS assay evaluates changes in activities of exogenous, chimeric NR-Gal4 proteins. […] At the end of 24 hour incubation, total RNA was isolated using TriZol reagent (Invitrogen). The isolated RNA is then reverse-transcribed using oligo(dT) primer and Mo-MLV reverse transcriptase (Invitrogen) with DNAse I (Ambion) treatment for 30 min. The one-tenth of the produced cDNA was amplified by PCR using Taq DNA polymerase (Invitrogen) and two reporter sequence-specific primers. The PCR products were fluorescently labeled by primer extension with 6-arboxyfluorescein (6-FAM) 5'-labeled reporter sequence-specific primer (2 min at 95 C, 20 s at 68 C and 10 min at 72 C) and these products were digested with 5U of HpaI (New England Biolabs) for 2h at 37 C. The fragments were purified using Qiaquick PCR columns (Qiagen), analyzed on an ABI 3130xL genetic analyzer (Applied Biosystems) with peak positions identified by using a set of X-rhodamine (ROX)-labeled MapMarker1000 molecular weight standards (BioVentures). The raw capillary electrophoresis data was processed using Attagraph software (Attagene).

SMILES	AC50	outcome
CC(C)=CCCC(C)=CCCC(C)=CCO	inconclusive: 100 µM	
CC(=O)OC/C=C(/C)CCC=C(C)C		inactive
COC(C)(C)CCO	inconclusive: 179 µM	
C=C(C)C(=O)OCCOc1ccccc1	inconclusive: 50.6 µM	
CC(C)CCOC(=O)c1ccccc1	inconclusive: 100 µM	
CC(C)(C)C(=O)CCc1ccc(Cl)cc1	inconclusive: 100 µM	
CC1CCC(C(C)C)C(O)C1 (stereo not given)		inactive
O=C(O)c1cccc(N(Cc2cccnc2)c2ccc(OC(F)F)c(OC(F)F)c2)c1	inconclusive: 152 µM	
CCc1occc(=O)c1O	inconclusive: 181 µM	
O=C1Cc2ccccc2N1c1c(Cl)cccc1Cl	inconclusive: 18 µM	
Cn1cc[nH]c1=S	inconclusive: 0.00921 µM	
C=COCCOCCOC=C	inconclusive: 126 µM	
OCCNCc1ccccc1	inconclusive: 100 µM	
O=C1c2ccccc2C(=O)c2c(O)c(O)cc(O)c21		inactive
COc1ccc([C@@H]2CC(=O)c3c(O)cc(O[C@@H]4O[C@H](CO[C@@H]5O[C@@H](C)[C@H](O)[C@@H](O)[C@H]5O)[C@@H](O)[C@H](O)[C@H]4O)cc3O2)cc1OC	inconclusive: 86 µM	
OC[C@H]1O[C@@H](Oc2ccc(O)cc2)[C@H](O)[C@@H](O)[C@@H]1O	inconclusive: 180 µM	
COC(Cc1ccccc1)OC	inconclusive: 100 µM	
O=C(O)CNc1ccccc1		inactive

SMILES	AC50	outcome
OCC1CCC(CO)CC1 (stereo not given)		inactive
CC(=O)C1(C)CC2=C(CCCC2(C)C)CC1C (stereo not given)	inconclusive: 157 µM	
C[N+](C)(CCCNS(=O)(=O)CCC(F)(F)C(F)(F)C(F)(F)C(F)(F)C(F)(F)C(F)(F)F)CC(=O)[O-]		inactive
CC1=C(/C=C/C(C)=C/C=C/C(C)=C/CO)C(C)(C)CCC1	active: 0.073 µM	
CCCCCCCCCCCC[N+](C)(C)Cc1ccccc1	inconclusive: 1.85 µM and inconclusive: 10.3 µM	
NCc1ccco1	inconclusive: 183 µM	
c1ccc2cnccc2c1	inconclusive: 100 µM	
CCc1cc(Cc2cc(CC)cc(C(C)(C)C)c2O)c(O)c(C(C)(C)C)c1	active: 8.99 µM	
COC(F)(F)C(F)(C(F)(F)F)C(F)(F)F	inconclusive: 150 µM	
CCc1cccc(CC)c1NC(=O)C(=O)O	inconclusive: 100 µM	
CCN=C1C=CC(=C(c2ccc(N(CC)CC)cc2)c2ccc(N(CC)CC)cc2)c2ccccc21	inconclusive: 1.77 µM	
CNS(=O)(=O)C(F)(F)C(F)(F)C(F)(F)C(F)(F)C(F)(F)C(F)(F)C(F)(F)C(F)(F)F		inactive
N[C@H]1C(O)O[C@H](CO)[C@H](O)[C@@H]1O (stereo not given in full)	inconclusive: 100 µM	
CC(=O)c1ccccc1N	inconclusive: 178 µM	
